About 1,400 (4.5%) of roughly 31,000 sequences were called active.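 Rule for the calls: active = median seed-adjusted z-score above 1 or below -1; inactive = the rest.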 This is one part of the list.
Experiment: Novel Modifiers of Survival Motor Neuron (SMN) Protein: Gene Identification via Genome-wide siRNA Screen;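 note: luminescence tracks full-length SMN protein made from the SMN2 reporter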
Conditions: HEK293T SMN2-luciferase reporter, siRNA knockdown, 72 h; actives lie on both sides
Procedure, shortened: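 siRNA screen, 10418 genes ×3 siRNAs; 1 pmol/well, lipid reverse transfection into HEK293T SMN2-luc reporter line. 72 h, 37 °C, 5% CO2; ONE-Glo readout. Data: neg-ctrl normalized, log10, MAD; hit = MAD >1.0 or < -1.0.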

| Sequence | median seed-adjusted z-score |
| --- | --- |
| GUCUUUAAUGCGCACUAUATT against FEZF1 | inactive: 0.155 |
| CGGAGUCGAUGGUUCAGUUTT against ARNTL | inactive: 0.0838 |
| GGAUUUUGGGCACAAGUUUTT against MTMR4 | inactive: -0.735 |
| GGAGAUACUCCGAACCUCATT against TEX13A | active: -1.22 |
| UGUCGUCUGUGAAUGCUAATT against ALDOA | inactive: -0.258 |
| GCAAAGUACUGUGCUAAGATT against ROBO3 | inactive: 0.131 |
| GGUGGAUGGUAAUAAGGAATT against CTPS2 | active: 1.08 |
| GAUGUAUUGUUACUACCAATT against SCNN1G | inactive: -0.616 |
| GCAACAACCUGAUUAAGGATT against MED24 | active: -2.3 |
| GGUGAACACCCUAAAAGAATT against JMJD6 | inactive: 0.314 |
| GCAAUUACAUGGUGGUCUATT against MEGF8 | inactive: 0.0906 |
| GCACCAGUCGAGGUCUAAATT against PEG3 | inactive: 0.5 |
| ACACCUCACUCAUCCUCUUTT against GNAZ | inactive: -0.604 |
| GAGCAUCGAUCUUAACCAUTT against CPXM1 | inactive: 0.147 |
| CCGUGGACCAGUACUUUUATT against MAN2B1 | inactive: -0.246 |
| GGAGAAAGCGGACCACCUUTT against SEBOX | inactive: 0.2 |
| AGGGAAAACUGGAGCAGGATT against APC2 | inactive: 0.00354 |
| CUCAAUCCAUAGUAAGUAUTT against ZNF678 | inactive: 0.172 |
| GGACAGCUAACAUUGCCUATT against LPCAT2 | inactive: 0 |
| GAAGAUUGGUGAUCUAGGATT against WNK3 | inactive: -0.466 |
| CGAAGCACGUCAAGACUCATT against SP5 | inactive: 0.105 |
| GGCUGCAUUUGGUCUCGAATT against RGL1 | inactive: 0.0217 |
| CAGACUCACUUGUCACUCATT against SCMH1 | inactive: -0.305 |

Look-ups from the results shown:
median seed-adjusted z-score with GGUGAACACCCUAAAAGAATT against JMJD6 is entered as inactive: 0.314
median seed-adjusted z-score with GCAACAACCUGAUUAAGGATT against MED24 is entered as active: -2.3
median seed-adjusted z-score with GGAGAAAGCGGACCACCUUTT against SEBOX is entered as inactive: 0.2

(listing goes on)

| Sequence | median seed-adjusted z-score |
| --- | --- |
| GCACUCCAGAGACGACUAATT against LMBR1 | inactive: 0.236 |
| CGAGAGCUCCAGAUCAUGATT against GSK3B | inactive: -0.952 |
| CCGUAGCUUUGAUGACGAATT against AKAP8 | inactive: -0.252 |
| CCACCCUUCGAGAUCUUCUTT against IRF5 | inactive: -0.146 |
| GCAUCAUCGCGUCAUAGCATT against SMPDL3B | inactive: 0.0704 |
| GAACUAUGAAUAAAGCUUUTT against HAGHL | inactive: -0.334 |
| ACAUCGUCGCGUCUGCUCATT against TMEM147 | inactive: 0.233 |
| GUACCACUCUAGCCCAAUATT against BMX | inactive: -0.00712 |
| CGACUUGCGAAAAAGGCUATT against MAGI2 | inactive: -0.23 |
| CUGCUAGUCUGGUUCACGATT against PDSS1 | inactive: -0.287 |
| CAAAGGUUGUCUGACACUATT against OBFC2B | inactive: -0.061 |
| GGAGUGCACGAGACAUUCATT against FAH | inactive: -0.0836 |
| CAAAGAAAAUGUAACCAUUTT against LY9 | inactive: 0.228 |
| AGGAGAAUAUUAUAUGACATT against EFHA1 | inactive: 0.0629 |
| GAGAAUGAGUUGCUGCAGATT against CORO2A | inactive: 0 |
| CAGUUGCCCUUGUUCGGAATT against TSSK6 | inactive: -0.408 |
| GCAUUGUAUCUCUUAUGUATT against FZD6 | inactive: 0.312 |
| GGUUACAAGCGGUUUGGUATT against COLEC12 | active: -1.04 |
| GCCUGGAUUUCUUAGAUUATT against ORC5L | inactive: -0.126 |
| GCAAUAUCAUUUCCUCCAATT against BRUNOL5 | inactive: 0.333 |
| UCAAGUACGUGCUAAUGAATT against CALML6 | inactive: 0.0119 |
| GCACAAGAGUGAAGACCAUTT against CCR9 | inactive: 0.16 |
| GCCCUCGCGUCUUCAGAAATT against NOP56 | inactive: 0.307 |

| Sequence | median seed-adjusted z-score |
| --- | --- |
| CUACUUAGUUGAUUCGGGATT against MCCC2 | inactive: -0.0566 |
| GAAGUUUACUCAACUGAGATT against RUVBL1 | inactive: -0.834 |
| GCUCCAUCAUCGUUGCAUUTT against SYPL2 | inactive: 0.233 |
| CACUGCUGAUGACCCGUUATT against ADCY4 | inactive: -0.0551 |
| CAAGAUUCUUGAUACUGCATT against HMBS | inactive: 0.422 |
| CAAUGAAAGUCCCAAAUGUTT against DHX33 | inactive: -0.689 |
| CCCUCUUCGACUUCAAACATT against MBD1 | inactive: 0 |
| GGAGAACUCUUUGCACCUATT against FHL3 | inactive: 0.105 |
| GGCUACGAGCAAUACUAUATT against OSBPL3 | inactive: 0.0159 |
| GUAUAUCGGUGAACUGCUUTT against SLC27A2 | inactive: -0.647 |
| CAUCGUCAUCAGAAACUGATT against MKX | inactive: 0.00623 |
| CAACUUGAGCGAAAAUUCUTT against RSU1 | inactive: 0.176 |
| GGAAACGAUUAUUACAACUTT against LRRK2 | inactive: -0.671 |
| CACUCCCUUAGGUCCCUUATT against ARID3B | inactive: -0.0846 |
| GCCUCAAGGUUCACCUGAATT against PRDM1 | inactive: -0.16 |
| AGACCUUCAUCGUACUCAATT against SCN4A | inactive: -0.681 |
| CAAUCCUCUCCAAACAUAATT against ZNF253 | inactive: 0.0237 |
| GGACUUUGGUUAUGUUGGATT against SNAP25 | inactive: 0 |
| CUGUAGUUGUGGUAGCGAUTT against GBP5 | inactive: -0.194 |
| CGAUUCUGGUUAUUGCAAATT against DHX38 | inactive: -0.723 |
| GCCUAUAAGGACAAGAUAATT against CD200 | inactive: -0.0135 |
| GAAAUUGACUCGUUUCUUATT against PLCXD2 | inactive: -0.0211 |
| GCUUUGACUUUCGAACAGATT against SRBD1 | inactive: 0.169 |

From PubChem BioAssay AID1347426 (Functional Genomics Laboratory (NCATS/FGL), 2020)
